Four molecules from article PMC5041083 can be followed below.

Sequences of proteins named here, by UniProt entry; tags and fusion partners are left off.
UniProt P18583: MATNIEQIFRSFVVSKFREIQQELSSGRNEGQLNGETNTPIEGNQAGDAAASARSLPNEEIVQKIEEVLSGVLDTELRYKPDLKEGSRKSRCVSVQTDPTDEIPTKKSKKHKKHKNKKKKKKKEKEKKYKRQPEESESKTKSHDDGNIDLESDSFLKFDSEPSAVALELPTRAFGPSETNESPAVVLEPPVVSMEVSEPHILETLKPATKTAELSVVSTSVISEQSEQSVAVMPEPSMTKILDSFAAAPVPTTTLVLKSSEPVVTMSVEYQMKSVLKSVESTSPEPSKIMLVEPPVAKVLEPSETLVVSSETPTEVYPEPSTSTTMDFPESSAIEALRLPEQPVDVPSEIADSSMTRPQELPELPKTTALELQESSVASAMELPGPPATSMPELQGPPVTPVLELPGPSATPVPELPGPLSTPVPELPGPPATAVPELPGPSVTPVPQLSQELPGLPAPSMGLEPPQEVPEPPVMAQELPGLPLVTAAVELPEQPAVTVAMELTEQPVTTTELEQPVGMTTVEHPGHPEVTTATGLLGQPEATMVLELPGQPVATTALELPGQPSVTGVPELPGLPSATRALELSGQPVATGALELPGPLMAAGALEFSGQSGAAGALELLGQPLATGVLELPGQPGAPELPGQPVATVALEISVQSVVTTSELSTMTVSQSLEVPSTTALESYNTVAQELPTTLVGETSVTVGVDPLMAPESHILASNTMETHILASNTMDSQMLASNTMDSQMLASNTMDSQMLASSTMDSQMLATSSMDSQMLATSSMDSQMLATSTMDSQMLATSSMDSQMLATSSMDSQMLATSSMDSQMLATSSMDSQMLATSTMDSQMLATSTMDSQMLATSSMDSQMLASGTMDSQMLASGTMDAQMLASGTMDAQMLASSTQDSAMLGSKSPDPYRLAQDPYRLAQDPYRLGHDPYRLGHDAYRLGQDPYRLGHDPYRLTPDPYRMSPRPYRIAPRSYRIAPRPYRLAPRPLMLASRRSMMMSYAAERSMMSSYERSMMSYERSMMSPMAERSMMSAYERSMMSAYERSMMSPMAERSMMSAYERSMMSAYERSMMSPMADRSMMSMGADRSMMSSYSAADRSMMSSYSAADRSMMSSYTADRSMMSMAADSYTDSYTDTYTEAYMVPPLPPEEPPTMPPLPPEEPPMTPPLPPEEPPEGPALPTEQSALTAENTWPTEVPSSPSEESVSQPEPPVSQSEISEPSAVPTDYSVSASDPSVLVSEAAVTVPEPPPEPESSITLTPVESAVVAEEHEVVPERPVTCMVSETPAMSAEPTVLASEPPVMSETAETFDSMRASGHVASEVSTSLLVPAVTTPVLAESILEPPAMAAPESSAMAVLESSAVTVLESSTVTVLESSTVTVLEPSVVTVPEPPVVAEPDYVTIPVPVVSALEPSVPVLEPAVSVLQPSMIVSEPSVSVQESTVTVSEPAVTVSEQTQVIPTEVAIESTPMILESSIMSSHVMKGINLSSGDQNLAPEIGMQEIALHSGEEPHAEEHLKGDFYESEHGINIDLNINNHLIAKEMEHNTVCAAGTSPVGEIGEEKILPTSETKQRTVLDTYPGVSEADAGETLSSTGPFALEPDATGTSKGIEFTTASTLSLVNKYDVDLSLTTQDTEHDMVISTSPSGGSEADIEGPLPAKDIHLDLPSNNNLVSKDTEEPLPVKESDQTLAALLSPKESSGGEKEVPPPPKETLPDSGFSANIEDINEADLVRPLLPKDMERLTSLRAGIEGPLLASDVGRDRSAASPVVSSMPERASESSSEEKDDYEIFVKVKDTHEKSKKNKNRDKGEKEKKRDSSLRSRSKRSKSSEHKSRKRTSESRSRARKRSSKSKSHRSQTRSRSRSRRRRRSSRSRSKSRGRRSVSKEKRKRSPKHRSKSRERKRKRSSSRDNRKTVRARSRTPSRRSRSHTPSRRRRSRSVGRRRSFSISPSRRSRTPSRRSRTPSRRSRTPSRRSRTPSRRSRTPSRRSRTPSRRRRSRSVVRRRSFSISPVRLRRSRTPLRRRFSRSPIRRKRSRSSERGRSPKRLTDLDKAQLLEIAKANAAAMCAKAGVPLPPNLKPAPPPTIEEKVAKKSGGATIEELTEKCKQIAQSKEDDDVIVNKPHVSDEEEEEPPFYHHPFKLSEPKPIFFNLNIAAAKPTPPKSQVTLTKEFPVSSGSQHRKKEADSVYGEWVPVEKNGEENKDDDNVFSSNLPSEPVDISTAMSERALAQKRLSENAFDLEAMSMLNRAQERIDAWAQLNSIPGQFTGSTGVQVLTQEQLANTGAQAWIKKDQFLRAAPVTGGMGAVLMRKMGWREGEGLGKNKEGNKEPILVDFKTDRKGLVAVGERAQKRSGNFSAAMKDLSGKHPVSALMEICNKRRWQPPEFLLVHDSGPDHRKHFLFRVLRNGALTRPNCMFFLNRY
UniProt P49674: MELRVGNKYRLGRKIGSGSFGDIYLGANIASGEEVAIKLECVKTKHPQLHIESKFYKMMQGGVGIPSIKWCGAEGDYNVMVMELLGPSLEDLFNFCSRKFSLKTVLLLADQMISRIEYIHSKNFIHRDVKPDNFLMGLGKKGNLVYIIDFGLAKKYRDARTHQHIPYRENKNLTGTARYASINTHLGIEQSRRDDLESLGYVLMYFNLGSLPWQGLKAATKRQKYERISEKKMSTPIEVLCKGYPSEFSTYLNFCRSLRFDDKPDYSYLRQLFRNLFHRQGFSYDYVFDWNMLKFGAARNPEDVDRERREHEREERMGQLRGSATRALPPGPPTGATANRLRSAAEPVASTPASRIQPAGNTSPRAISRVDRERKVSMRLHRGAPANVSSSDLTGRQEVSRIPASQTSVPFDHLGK

These are yes or no findings as the source states them, for the method shown. Binding seen in cells or lysates may run through a third protein. These calls come from enrichment with a bait or labelling near it, and not all partners need be listed. Where a sequence is shown, tags or fusion partners need not be part of it.

One test concerns the target T1, FAM83H-FLAG (UniProt Q6ZRV2).
T1 sequence: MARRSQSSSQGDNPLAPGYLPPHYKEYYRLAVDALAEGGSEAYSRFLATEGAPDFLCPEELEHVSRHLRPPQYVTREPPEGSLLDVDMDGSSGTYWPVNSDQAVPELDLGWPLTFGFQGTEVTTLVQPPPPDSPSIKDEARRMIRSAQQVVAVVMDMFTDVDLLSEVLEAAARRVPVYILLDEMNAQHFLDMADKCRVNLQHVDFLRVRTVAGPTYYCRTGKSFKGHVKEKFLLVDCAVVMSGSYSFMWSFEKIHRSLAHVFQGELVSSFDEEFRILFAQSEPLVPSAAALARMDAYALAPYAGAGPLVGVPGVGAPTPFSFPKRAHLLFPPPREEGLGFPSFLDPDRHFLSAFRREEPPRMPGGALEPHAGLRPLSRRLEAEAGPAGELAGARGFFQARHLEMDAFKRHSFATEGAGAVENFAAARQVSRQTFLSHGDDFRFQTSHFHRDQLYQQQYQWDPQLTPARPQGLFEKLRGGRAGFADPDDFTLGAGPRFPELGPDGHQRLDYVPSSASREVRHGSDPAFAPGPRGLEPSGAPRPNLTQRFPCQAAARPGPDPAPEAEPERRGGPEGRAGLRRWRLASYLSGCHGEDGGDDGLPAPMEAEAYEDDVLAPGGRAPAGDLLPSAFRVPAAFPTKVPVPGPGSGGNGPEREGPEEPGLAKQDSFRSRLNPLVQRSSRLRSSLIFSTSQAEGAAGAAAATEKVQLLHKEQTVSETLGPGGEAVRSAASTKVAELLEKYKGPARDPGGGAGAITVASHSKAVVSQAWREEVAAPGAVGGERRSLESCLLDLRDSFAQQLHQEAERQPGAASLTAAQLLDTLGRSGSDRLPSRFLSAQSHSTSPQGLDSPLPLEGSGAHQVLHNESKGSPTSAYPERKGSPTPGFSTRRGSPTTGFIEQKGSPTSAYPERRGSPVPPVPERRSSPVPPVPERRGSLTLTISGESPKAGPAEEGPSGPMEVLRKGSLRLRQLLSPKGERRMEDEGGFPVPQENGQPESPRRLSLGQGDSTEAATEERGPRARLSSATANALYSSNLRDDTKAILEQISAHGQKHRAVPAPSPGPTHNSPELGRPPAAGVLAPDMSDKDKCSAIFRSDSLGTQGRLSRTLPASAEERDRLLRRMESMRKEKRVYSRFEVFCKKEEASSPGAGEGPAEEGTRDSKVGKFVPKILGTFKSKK
Kind of test: affinity purification with mass spectrometry; RKO cells transfected with FAM83H-FLAG, FAM83H-S287X-FLAG or no insert; lysate in PBS with 1% NP40; anti-FLAG antibody cross-linked to Protein G Dynabeads; in-gel digestion, LC-MS/MS; ranked by number of assigned spectra (Table S1).

For a further test, the target named is T2, FAM83H-S287X-FLAG (UniProt Q6ZRV2).
T2 sequence: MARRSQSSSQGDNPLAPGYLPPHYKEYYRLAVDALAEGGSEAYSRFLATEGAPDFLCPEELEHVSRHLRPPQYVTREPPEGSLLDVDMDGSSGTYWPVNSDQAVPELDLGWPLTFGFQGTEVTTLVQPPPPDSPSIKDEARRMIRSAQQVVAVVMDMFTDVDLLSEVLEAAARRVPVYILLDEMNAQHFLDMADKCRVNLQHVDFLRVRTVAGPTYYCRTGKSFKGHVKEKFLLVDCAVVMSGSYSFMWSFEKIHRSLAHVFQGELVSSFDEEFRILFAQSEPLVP
The description is as above.

Turning to SON (from UniProt P18583 1-2426), the binding result with FAM83H-FLAG is reported as “binds”.

In the case of “casein kinase 1ε (from UniProt P49674 1-416) (enzyme)”, in the test with FAM83H-S287X-FLAG, the binding result is listed as “binds”.

B1: protein unc-45 homolog A (protein, UniProt Q9H3U1 1-944)
chain: MTVSGPGTPEPRPATPGASSVEQLRKEGNELFKCGDYGGALAAYTQALGLDATPQDQAVLHRNRAACHLKLEDYDKAETEASKAIEKDGGDVKALYRRSQALEKLGRLDQAVLDLQRCVSLEPKNKVFQEALRNIGGQIQEKVRYMSSTDAKVEQMFQILLDPEEKGTEKKQKASQNLVVLAREDAGAEKIFRSNGVQLLQRLLDMGETDLMLAALRTLVGICSEHQSRTVATLSILGTRRVVSILGVESQAVSLAACHLLQVMFDALKEGVKKGFRGKEGAIIVDPARELKVLISNLLDLLTEVGVSGQGRDNALTLLIKAVPRKSLKDPNNSLTLWVIDQGLKKILEVGGSLQDPPGELAVTANSRMSASILLSKLFDDLKCDAERENFHRLCENYIKSWFEGQGLAGKLRAIQTVSCLLQGPCDAGNRALELSGVMESVIALCASEQEEEQLVAVEALIHAAGKAKRASFITANGVSLLKDLYKCSEKDSIRIRALVGLCKLGSAGGTDFSMKQFAEGSTLKLAKQCRKWLCNDQIDAGTRRWAVEGLAYLTFDADVKEEFVEDAAALKALFQLSRLEERSVLFAVASALVNCTNSYDYEEPDPKMVELAKYAKQHVPEQHPKDKPSFVRARVKKLLAAGVVSAMVCMVKTESPVLTSSCRELLSRVFLALVEEVEDRGTVVAQGGGRALIPLALEGTDVGQTKAAQALAKLTITSNPEMTFPGERIYEVVRPLVSLLHLNCSGLQNFEALMALTNLAGISERLRQKILKEKAVPMIEGYMFEEHEMIRRAATECMCNLAMSKEVQDLFEAQGNDRLKLLVLYSGEDDELLQRAAAGGLAMLTSMRPTLCSRIPQVTTHWLEILQALLLSSNQELQHRGAVVVLNMVEASREIASTLMESEMMEILSVLAKGDHSPVTRAAAACLDKAVEYGLIQPNQDGE
With B1, the binding result with FAM83H-FLAG was “binds”.

B2: hnRNP M (protein, UniProt P52272 1-730)
chain: MAAGVEAAAEVAATEIKMEEESGAPGVPSGNGAPGPKGEGERPAQNEKRKEKNIKRGGNRFEPYANPTKRYRAFITNIPFDVKWQSLKDLVKEKVGEVTYVELLMDAEGKSRGCAVVEFKMEESMKKAAEVLNKHSLSGRPLKVKEDPDGEHARRAMQKVMATTGGMGMGPGGPGMITIPPSILNNPNIPNEIIHALQAGRLGSTVFVANLDYKVGWKKLKEVFSMAGVVVRADILEDKDGKSRGIGTVTFEQSIEAVQAISMFNGQLLFDRPMHVKMDERALPKGDFFPPERPQQLPHGLGGIGMGLGPGGQPIDANHLNKGIGMGNIGPAGMGMEGIGFGINKMGGMEGPFGGGMENMGRFGSGMNMGRINEILSNALKRGEIIAKQGGGGGGGSVPGIERMGPGIDRLGGAGMERMGAGLGHGMDRVGSEIERMGLVMDRMGSVERMGSGIERMGPLGLDHMASSIERMGQTMERIGSGVERMGAGMGFGLERMAAPIDRVGQTIERMGSGVERMGPAIERMGLSMERMVPAGMGAGLERMGPVMDRMATGLERMGANNLERMGLERMGANSLERMGLERMGANSLERMGPAMGPALGAGIERMGLAMGGGGGASFDRAIEMERGNFGGSFAGSFGGAGGHAPGVARKACQIFVRNLPFDFTWKMLKDKFNECGHVLYADIKMENGKSKGCGVVKFESPEVAERACRMMNGMKLSGREIDVRIDRNA
As to B2, in the test with FAM83H-FLAG, the binding result is recorded as “binds”.
